The list shows a part of the results. These are further read-outs of the screen, such as a control signal, another cell line or another target. No call is given for them. Compounds called inactive in the main read-out are mostly missing here. Words in brackets tell the shape of the fitted curve; partial curves, single points and poor fits give uncertain potencies.
Test: qHTS Assay for Lipid Storage Modulators in Drosophila S3 Cells;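 as to cell number change: cells counted by Cell Tracker Red CMTPX staining in the red channel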
Conditions: BODIPY lipid droplet fluorescence, 18-24 h; for cell number change: measured here: cell count max response, cells fed with added oleic acid
Procedure, shortened: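 Drosophila S3 cells got compounds at several concentrations plus oleic acid (400 uM solution). Laser-scanning cytometry with 488 nm excitation read lipid droplets at 500-530 nm and cells at 575-640 nm. Percent activity was relative to 20 uM Triacsin C.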

[1] = measured here: cell number channel AC50, cells fed with added oleic acid
[2] = measured here: lipid fluorescence (Fed channel) AC50, cells fed with added oleic acid

## COc1ccc(S(=O)(=O)NCCc2cc3ccc(C)c(C)c3[nH]c2=O)cc1
  cell number change: -5.26%

## COc1ccccc1C(=O)NC(CCSC)C(=O)NC1CCCCCC1 (configuration not stated)
  cell number change: 51.9%
[1]
  AC50: 25.9 µM [rising, single point]

## O=C(COc1ccc2c3c(c(=O)oc2c1)CCC3)NCc1ccccn1
  cell number change: -19.5%
[2]
  AC50: 29.1 µM [falling, single point]

## COc1ccc(-c2cc(C(=O)Nc3c(C)nn(Cc4ccc(Cl)cc4)c3C)no2)cc1
  cell number change: -62.7%
[1]
  AC50: 23.1 µM [falling, partial curve, poor fit]
[2]
  AC50: 23.1 µM [falling, partial curve]

## CCOC(=O)c1ccc(-n2c(C)nc3c(cnn3-c3ccccc3Cl)c2=O)cc1
  cell number change: -37.5%
[1]
  AC50: 13 µM [falling, partial curve]
[2]
  AC50: 16.4 µM [falling, single point]

## Cc1ccccc1NC(=O)c1nc(S(C)(=O)=O)ncc1Cl
  cell number change: -37.8%
[1]
  AC50: 4.11 µM [falling, full curve, poor fit]
[2]
  AC50: 0.731 µM [falling, full curve]

## O=c1nc(C(F)(F)F)nc2ccccn12
  cell number change: 128%

## CC(c1nccs1)N(C)C(=O)CCc1nnc(CCc2ccccc2)o1 (configuration not stated)
  cell number change: 4.89%
[2]
  AC50: 0.164 µM [falling, full curve, poor fit]

## CCCOc1ccc(CN(C(=O)c2cccc(OC)c2)C2CCS(=O)(=O)C2)cc1 (configuration not stated)
[2]
  AC50: 29.1 µM [falling, single point]

## CCOC(=O)N1CCN(CCC(=O)Nc2ccc(Br)cc2)CC1
  cell number change: 43.2%
[1]
  AC50: 9.2 µM [rising, partial curve]
[2]
  AC50: 16.4 µM [rising, partial curve]

## Fc1ccc(NC(=S)Nc2ccc(Br)cc2)cc1
  cell number change: -33.9%
[1]
  AC50: 0.0206 µM [falling, full curve, poor fit]
[2]
  AC50: 29.1 µM [falling, single point]

## COc1ccc(NC(=O)C2CCCN(S(=O)(=O)c3cccc4nonc34)C2)cc1 (configuration not stated)
  cell number change: 30.4%
[1]
  AC50: 2.31 µM [rising, full curve, poor fit]
[2]
  AC50: 10.3 µM [rising, partial curve]

## COc1ccc(OC)c(S(=O)(=O)n2nc(-c3ccccc3)cc2N)c1
[1]
  AC50: 0.461 µM [rising, full curve]

## Cc1ccc(NC(=O)CCCNC(=O)c2ccc(Cl)cc2)nc1
  cell number change: 0.983%
[2]
  AC50: 0.58 µM [rising, single point]

## Cc1ccc(NC2SC(=O)N(Cc3cccc(C(=O)O)c3)C2=O)c(C)c1 (configuration not stated)
  cell number change: 11.3%

## O=C(c1ccccc1)c1ccc(OCC(O)CNCc2ccc(Cl)cc2)cc1 (configuration not stated)
  cell number change: -71.7%
[1]
  AC50: 29.1 µM [falling, single point]
[2]
  AC50: 29.1 µM [falling, single point]

## CCc1nc(NC2CCCCC2)c(C#N)c2c1COC(C)(C)C2
  cell number change: -27.5%
[2]
  AC50: 32.6 µM [falling, single point]

## Cc1cccc(/C=C2\CCC(C3CCCC3)C2=O)c1 (configuration not stated)
  cell number change: 1.48%
[2]
  AC50: 16.4 µM [rising, partial curve, poor fit]

## NC(=S)N/N=C/c1ccc(-c2cccc([N+](=O)[O-])c2)o1
  cell number change: -9.96%

## Cc1ccc(S(=O)(=O)NCCC(=O)Nc2ccncc2)cc1C
  cell number change: 41%
[1]
  AC50: 5.8 µM [rising, full curve, poor fit]

## COC(=O)c1cc(NC(=O)Nc2ccccc2)ccc1Cl
  cell number change: 8.47%

## COc1cccc(NS(=O)(=O)c2ccc3c(c2)C2C=CCC2C(c2ccc(C(=O)O)cc2)N3)c1 (configuration not stated)
  cell number change: -1.53%
[2]
  AC50: 0.0517 µM [rising, full curve, poor fit]

## CCN(CC)S(=O)(=O)c1ccc2oc(C(=O)NCc3ccc(C)cc3)c(C)c2c1
  cell number change: -1.84%
[1]
  AC50: 3.66 µM [rising, single point]
[2]
  AC50: 6.51 µM [rising, single point]

## Cc1ccc(-n2nnnc2SCC(=O)NC(=O)Nc2ccc3c(c2)OCCO3)cc1
  cell number change: -1.33%
[1]
  AC50: 0.411 µM [falling, single point]

## CCC1CCCCN1CCNC(=O)c1[nH]c(C)c(C(C)=O)c1C (configuration not stated)
  cell number change: -24.4%
[2]
  AC50: 10.3 µM [falling, partial curve, poor fit]

## Cc1cc(C(=O)OCC(=O)NCc2ccc(F)cc2)c2ccccc2n1
  cell number change: -47.6%
[1]
  AC50: 23.1 µM [falling, partial curve]
[2]
  AC50: 2.59 µM [falling, full curve]

## c1ccc(OCCCn2nnc(-c3cccnc3)n2)cc1
[1]
  AC50: 2.91 µM [rising, partial curve]

## COC(=O)CSc1nc(-c2ccccc2)cc(-c2ccco2)c1C#N
  cell number change: -28.5%
[2]
  AC50: 29.1 µM [rising, single point]

## COc1cc(NS(C)(=O)=O)c(OC)cc1NC(=O)c1ccccc1
  cell number change: 3.98%

## CCOc1ccc(C(=O)NCC(=O)NCCCSc2ccccc2)cc1OCC
  cell number change: 28.6%
[2]
  AC50: 0.259 µM [rising, full curve, poor fit]

## Cc1ccccc1OCc1nnc(SCC(=O)O)n1-c1ccccc1
  cell number change: 2.55%
[1]
  AC50: 2.31 µM [rising, partial curve, poor fit]

## Cc1cc(C)c(OCC(=O)Nc2nc3ccccc3[nH]2)c(C)c1
  cell number change: 48.2%

## COc1cc(C(=O)NC(C)Cc2cccs2)cc(OC)c1OC (configuration not stated)
  cell number change: 27.1%

## Nc1ccc(-n2cnc3cc([N+](=O)[O-])ccc32)cc1
  cell number change: 33.7%
[1]
  AC50: 1.46 µM [rising, full curve, poor fit]
[2]
  AC50: 1.03 µM [rising, single point]

## CCN(CC)C(=O)c1nc[nH]c1C(=O)N1CCN(C(=O)OC(C)(C)C)CC1
  cell number change: 13%
[1]
  AC50: 1.3 µM [falling, partial curve]
[2]
  AC50: 1.46 µM [falling, partial curve]

## Cc1nn(-c2ccccc2)c(C)c1C(=O)OCC(=O)c1c(N)n(CC(C)C)c(=O)n(C)c1=O
  cell number change: -14.1%
[2]
  AC50: 0.731 µM [rising, full curve]

## Cc1c(C(=O)N2CCN(CC(=O)Nc3ccccc3Cl)CC2)oc2ccc(Br)cc12
  cell number change: -47.1%
[1]
  AC50: 29.1 µM [falling, single point]
[2]
  AC50: 29.1 µM [falling, single point]

## C/C(=N\Nc1nc2ccccc2c(=O)n1O)c1ccco1
  cell number change: -6.38%
[2]
  AC50: 5.8 µM [rising, single point]

## CC(C)(C)NC(=O)CSc1nnc(-c2ccncc2)o1
  cell number change: 122%
[1]
  AC50: 29.1 µM [rising, single point]
[2]
  AC50: 4.11 µM [rising, full curve]

## C=CCN1C(=O)/C(=C\c2ccc(C)cc2)N=C1SCC(=O)NCCC
  cell number change: -9.96%
[1]
  AC50: 0.411 µM [rising, full curve]
[2]
  AC50: 0.92 µM [rising, full curve]

## COc1cc(/C=C/C(=O)O)ccc1OS(=O)(=O)c1c(C)c(C)cc(C)c1C
  cell number change: -14.2%
[2]
  AC50: 2.06 µM [rising, partial curve]

## Cc1cccc(-n2c(C)cc(/C=C3\C(=N)N4N=C(CC(C)C)SC4=NC3=O)c2C)c1
[1]
  AC50: 3.26 µM [rising, partial curve, poor fit]

## Cc1nn(C)c2ncc(C(N)=O)c(Oc3ccc(Cl)cc3)c12
  cell number change: 21.4%
[1]
  AC50: 0.103 µM [rising, full curve, poor fit]

## Cc1ccc(N(CC(=O)NCCc2ccccc2)C(=O)c2csnn2)cc1
  cell number change: 26.7%
[1]
  AC50: 0.0461 µM [rising, full curve, poor fit]
[2]
  AC50: 1.3 µM [rising, partial curve]

## COc1cc(CCC(=O)N2CCN(c3ncccn3)CC2)cc(OC)c1OC
  cell number change: -21.7%
[1]
  AC50: 0.0517 µM [falling, full curve, poor fit]

## CCN(CC)c1ccc(N=Cc2ccccc2[N+](=O)[O-])cc1
  cell number change: -38.7%
[1]
  AC50: 13 µM [falling, partial curve, poor fit]
[2]
  AC50: 14.6 µM [falling, single point]

## CC1(C)Cn2c(nnc2-c2ccccc2)S1
  cell number change: 13.8%
[2]
  AC50: 29.1 µM [falling, single point]

## O=C(O)CCN1C(=O)C(=C2CCCCCC2)SC1=S
  cell number change: 7.1%
[1]
  AC50: 6.51 µM [rising, single point]

## CCNc1nc(N)nc(Oc2ccc(OCCOc3ccc(Cl)cc3Cl)nn2)n1
  cell number change: 8.31%
[2]
  AC50: 2.91 µM [rising, single point]

## O=C(/C=C/c1ccc(O)c(O)c1)NC(=O)c1ccccc1O
  cell number change: -17.2%

## O=C(CSc1nnc(-c2ccncc2)n1Cc1ccccc1)Nc1nccs1
  cell number change: -6.42%
[2]
  AC50: 0.92 µM [falling, partial curve, poor fit]

## O=C(NNC(=O)c1ccccc1Cl)c1ccccc1Cl
  cell number change: -55.5%
[1]
  AC50: 11.6 µM [falling, single point]
[2]
  AC50: 23.1 µM [falling, single point]

## O=C(Nc1ccccc1)N(Cc1ccccc1)Cc1ccccc1
  cell number change: -28.8%
[2]
  AC50: 2.31 µM [falling, partial curve]

## O=C(Nc1cccc(Cl)c1N1CCOCC1)c1cccnc1Cl
  cell number change: -17.2%
[2]
  AC50: 29.1 µM [falling, single point]

## Nc1nonc1-n1nnc(C(=O)N/N=C/c2cccnc2)c1CSc1ccccc1
  cell number change: -7.46%
[2]
  AC50: 1.64 µM [rising, partial curve]

## C#CCOCCOCCOCCNc1nc(N2CCN(C(=O)CCCCCCCCCCNC(=O)[C@H]([C@@H](C)CC)n3cc(CCCCN=C(N)N)nn3)CC2)nc(N2CCN(C(=O)CCCCCCCCCCNC(=O)[C@H]([C@@H](C)CC)n3cc(CCCCN=C(N)N)nn3)CC2)n1
  cell number change: -87%
[1]
  AC50: 5.8 µM [falling, partial curve]
[2]
  AC50: 4.11 µM [falling, single point]
